Holding throughout (assay): two-hybrid; Y2H assay, Matchmaker system, AH109 yeast; Amotl2a forms fused to the Gal4 DNA-binding domain (pGBKT7), Yap1/Taz forms fused to the Gal4 activation domain (pGADT7); patched on selective plates lacking histidine, grown 3-4 days
Assay [1] concerns the target T1, zebrafish Amotl2a fused to the Gal4 DNA-binding domain (pGBKT7) (zebrafish) (UniProt A1YB07).
T1 sequence: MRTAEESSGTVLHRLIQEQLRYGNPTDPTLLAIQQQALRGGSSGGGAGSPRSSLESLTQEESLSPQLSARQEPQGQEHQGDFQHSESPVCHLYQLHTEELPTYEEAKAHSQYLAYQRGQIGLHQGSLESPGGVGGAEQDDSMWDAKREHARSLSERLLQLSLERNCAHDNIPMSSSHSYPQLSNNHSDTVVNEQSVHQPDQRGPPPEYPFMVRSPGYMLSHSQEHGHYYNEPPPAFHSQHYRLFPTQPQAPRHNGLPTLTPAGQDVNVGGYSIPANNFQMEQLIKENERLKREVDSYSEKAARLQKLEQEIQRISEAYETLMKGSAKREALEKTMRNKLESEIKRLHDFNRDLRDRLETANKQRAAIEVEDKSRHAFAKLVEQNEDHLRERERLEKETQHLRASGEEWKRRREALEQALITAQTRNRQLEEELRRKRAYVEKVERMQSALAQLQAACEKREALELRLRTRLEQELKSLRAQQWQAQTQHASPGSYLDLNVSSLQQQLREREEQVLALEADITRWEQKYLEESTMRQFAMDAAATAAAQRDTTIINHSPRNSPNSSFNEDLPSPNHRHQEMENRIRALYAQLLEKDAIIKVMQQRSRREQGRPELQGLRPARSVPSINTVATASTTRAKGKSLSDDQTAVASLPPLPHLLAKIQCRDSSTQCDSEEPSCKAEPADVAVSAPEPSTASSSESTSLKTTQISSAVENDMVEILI

The chains behind the UniProt entries cited, without tags or fusion partners. Where a name states a change or a piece, a line headed by the entry shows the natural chain unless it says otherwise.
UniProt Q1L8J7: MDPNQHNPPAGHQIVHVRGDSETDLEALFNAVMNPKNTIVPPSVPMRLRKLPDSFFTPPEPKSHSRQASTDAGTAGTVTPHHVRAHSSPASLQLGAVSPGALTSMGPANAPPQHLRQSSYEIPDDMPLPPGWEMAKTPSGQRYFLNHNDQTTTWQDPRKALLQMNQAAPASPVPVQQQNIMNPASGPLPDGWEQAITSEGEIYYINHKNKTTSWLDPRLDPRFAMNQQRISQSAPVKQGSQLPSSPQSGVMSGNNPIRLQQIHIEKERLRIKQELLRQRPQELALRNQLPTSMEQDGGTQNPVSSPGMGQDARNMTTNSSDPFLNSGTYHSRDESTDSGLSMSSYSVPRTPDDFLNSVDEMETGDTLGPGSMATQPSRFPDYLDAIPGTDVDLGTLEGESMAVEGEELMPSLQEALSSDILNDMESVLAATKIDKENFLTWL

Assay [2] deals with zebrafish Amotl2a with the PPEY motif mutated (PPEA), Gal4 DNA-binding domain fusion (zebrafish) (UniProt A1YB07).
Assay [3] deals with zebrafish Amotl2a with the LPTY motif mutated (LATA), Gal4 DNA-binding domain fusion (zebrafish) (UniProt A1YB07).

These are yes or no findings as the source states them, for the method shown. Binding can be weak; no strength is given. For some assays here: Sequences can lack the tags named with a protein.

Consider “zebrafish Taz fused to the Gal4 activation domain (pGADT7)”, for which, in assay [1], the binding entry was “binds”.
Take “zebrafish TazΔWW fused to the Gal4 activation domain (pGADT7)”: the binding entry in assay [1] is listed as “no binding”.
Consider “zebrafish Yap1 fused to the Gal4 activation domain (pGADT7) (from UniProt Q1L8J7 1-442)”, for which the binding entry in assay [2] and in assay [3] was “binds” in each case.
For the substance “zebrafish Yap1ΔWW1,2 fused to the Gal4 activation domain (pGADT7) (from UniProt Q1L8J7)”, in assay [1], the binding entry is recorded as “no binding”.

(Values after article PMC4596637.)
